# According to article PMC7819943, “Rice protein-binding microarrays: a tool to detect cis-acting elements near promoter regions in rice”:
# Chains of the proteins cited; added tags and fusions are not shown.
# UniProt Q0JBA9, entry or part of it: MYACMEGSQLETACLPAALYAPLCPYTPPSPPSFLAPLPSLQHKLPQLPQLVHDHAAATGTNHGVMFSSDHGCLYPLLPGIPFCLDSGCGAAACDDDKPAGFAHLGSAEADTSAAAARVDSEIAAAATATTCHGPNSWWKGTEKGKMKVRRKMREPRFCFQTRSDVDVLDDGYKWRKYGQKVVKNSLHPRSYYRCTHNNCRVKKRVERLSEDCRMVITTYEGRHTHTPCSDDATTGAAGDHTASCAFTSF
# The other results are listed elsewhere or left out.
# Target: OsWRKY34 (Oryza sativa, UniProt Q0JBA9 1-250)
# Test: protein-binding microarray (RPBM); PBS, 2% BSA, 51.3 ng/ul salmon testes DNA, 50 uM zinc acetate, 200 nM TF, 25 C, 1 h; high values mean tight binding
# Conditions: protein: recombinant; tags: N-terminal polyhistidine and DsRed monomer fusion (pET32a); label: CyDye5-dUTP incorporated in the synthesized complementary strand; 3' TTTTT single-stranded linker to array surface; dsDNA, one strand shown
# How it was run: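 An Axon 4000B scanner gave the binding signal as per-feature fluorescence intensity in arbitrary units. This followed washing of a custom Agilent array that had been incubated for 1 h at 25 °C with 200 nM protein in PBS, 2% BSA, salmon testes DNA and 50 µM zinc acetate. The proteins were transcription factors fused at the N-terminus to polyhistidine and DsRed, expressed in E. coli BL21-CodonPlus and purified on Ni–NTA.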
row,Sequence,binding signal
1,CCACTTCCAGCATGGCATTTGGGCGAAACCCACTTTTTGACGGAGTCACCTAGTGCAG,8610 fluorescence intensity (a.u.)
2,TACATTACTTCATATTTTTTTCTGTTTGTGATTTCTATTTCGGAGTCACCTAGTGCAG,9740 fluorescence intensity (a.u.)
3,TTTATATCCGGCTTTTTTACCCTCGTCAATTTCTCATTCGCGGAGTCACCTAGTGCAG,9740 fluorescence intensity (a.u.)
4,TCACCACCGCGACTTCAGTTCTCCACCTTCAACCACTTCTCGGAGTCACCTAGTGCAG,11800 fluorescence intensity (a.u.)
5,GTATAACTGGTTGAGTTGGTGTGTGGGGCTACCTTTCTTCCGGAGTCACCTAGTGCAG,10900 fluorescence intensity (a.u.)
6,GATATATATACGCGTTCATCAGCGTACGTTCTTATAGCTACGGAGTCACCTAGTGCAG,8360 fluorescence intensity (a.u.)
7,CTATTTTTACCTAACTTTCAGCTCTATCACTTCCATTTCACGGAGTCACCTAGTGCAG,9040 fluorescence intensity (a.u.)
8,CCGCCGCGCACTGCCGCCGCCGCCGCCACAACCGCGCGCCCGGAGTCACCTAGTGCAG,8270 fluorescence intensity (a.u.)
9,GCTACTATACCTAGGCTCTTGCTCCACAGGCTTACCGTGCCGGAGTCACCTAGTGCAG,8360 fluorescence intensity (a.u.)
10,TAAATCCGTAGCGTACGTAACCCCTGCTCCGTTCATCATCCGGAGTCACCTAGTGCAG,8030 fluorescence intensity (a.u.)
11,CTCAATGATGTTTTTCCTGCAGTATCTTGACATTTGAATCCGGAGTCACCTAGTGCAG,10800 fluorescence intensity (a.u.)
12,CCGCAACAACCACTAACCGACAACCACGTGGCCGCCGAATCGGAGTCACCTAGTGCAG,8220 fluorescence intensity (a.u.)
13,CACCACTCTCGGGCCCACATGTCAACCACCAAATCAGTAGCGGAGTCACCTAGTGCAG,8160 fluorescence intensity (a.u.)
14,CGAGACGCTCACGCCGGCCGGCCATCACGGTATAGCCACCCGGAGTCACCTAGTGCAG,9360 fluorescence intensity (a.u.)
15,CACTCCTCTTCTTCTTGTTCTTCTTGCTTCCCTCCAACTTCGGAGTCACCTAGTGCAG,9150 fluorescence intensity (a.u.)
16,TCCATCACGACCCCAACTCGTCCTCAATCGCGGCCACCCGCGGAGTCACCTAGTGCAG,9130 fluorescence intensity (a.u.)
17,TCTAACGTATGAGTAGTGTATAATTTCGGGGAGGAAAAGACGGAGTCACCTAGTGCAG,10500 fluorescence intensity (a.u.)
18,ACATTAGTTTTTGCGCTCAAATTTGAATTTCTATTACTATCGGAGTCACCTAGTGCAG,9310 fluorescence intensity (a.u.)
19,TTTCATCCGATATGGCTCGTTGACTTGATCCACTTAGCTGCGGAGTCACCTAGTGCAG,11200 fluorescence intensity (a.u.)
20,GTCTGCTGATTGTATTATGTTCTTTTAGGTAGTTAATTCGCGGAGTCACCTAGTGCAG,8200 fluorescence intensity (a.u.)
21,TGCCGCTCGCATCTCCACTCCCAACTTCGGATCAACTACACGGAGTCACCTAGTGCAG,9560 fluorescence intensity (a.u.)

row,Sequence,binding signal
1,GCCGATGACGATTCCATCCCCGCGGATCTAAGCTTGCCGCCGGAGTCACCTAGTGCAG,8080 fluorescence intensity (a.u.)
2,ACCATCTAGCTCACTCACACAGTCTCCACTCACACGCATTCGGAGTCACCTAGTGCAG,8840 fluorescence intensity (a.u.)
3,GGTCCTCCAACTTGTTCAGTTGTGTCACCTCGGTCCCTAACGGAGTCACCTAGTGCAG,8960 fluorescence intensity (a.u.)
4,TTCTTTTCGTTCTCGTGGCTGTCATTCTCCGACGTGCTCACGGAGTCACCTAGTGCAG,10200 fluorescence intensity (a.u.)
5,ATAATACCTCATATCACTCTGCTGTCCAGTCTACTCCCTTCGGAGTCACCTAGTGCAG,8240 fluorescence intensity (a.u.)
6,TCAGCATTGTTCTTGTATTCCCCACTTCCTGAAGTTCTTACGGAGTCACCTAGTGCAG,8090 fluorescence intensity (a.u.)
7,AAAACTGGGTTTTACAACTTTTGATTTCTAGTTTATTTTTCGGAGTCACCTAGTGCAG,8160 fluorescence intensity (a.u.)
8,ACGTGTCAAACCCCAAATCCCAGGCCGGTTTACTCGTTTTCGGAGTCACCTAGTGCAG,8140 fluorescence intensity (a.u.)
9,TCTAATTTCTACACTGTCCTTTAGACTATTCAGTATACATCGGAGTCACCTAGTGCAG,10300 fluorescence intensity (a.u.)
10,ATCCGTTTTTGCGTTCAGGGATGAATTTCGGACTCGGCGACGGAGTCACCTAGTGCAG,8220 fluorescence intensity (a.u.)
11,GCCGAGCCCCATCTTCTGCTGCGACCCCGTAGCGCTCAACCGGAGTCACCTAGTGCAG,9240 fluorescence intensity (a.u.)
12,TCCACATTCTTCATTCTCCATTAATTTCACGGTTTCATCTCGGAGTCACCTAGTGCAG,9980 fluorescence intensity (a.u.)
13,GAGGCGGGTGGGCGAGCTCCGGCGGCGGCGGGGTGGCCTTCGGAGTCACCTAGTGCAG,15800 fluorescence intensity (a.u.)
14,TCCACGTTGACCACATCGCGTCACACCGTCCACGACTTTTCGGAGTCACCTAGTGCAG,12700 fluorescence intensity (a.u.)
15,TCATGTTCATCTTGGCCAACAATTTCTTACTTTCTTTCTCCGGAGTCACCTAGTGCAG,8930 fluorescence intensity (a.u.)
16,GATTGCTTTTATCTTGTTCTTGCTTGTTTCTTCGATTTGCCGGAGTCACCTAGTGCAG,8790 fluorescence intensity (a.u.)
17,GCGCTGATCTCGTCGTCTTCCTTGCATTGGCGCCGCTCAACGGAGTCACCTAGTGCAG,10900 fluorescence intensity (a.u.)
18,ACTTTTGCCATCGTGGACACACTATCACCAGGCTCCAGCTCGGAGTCACCTAGTGCAG,8520 fluorescence intensity (a.u.)
19,TTAAAGTTCAGTTGACGTCCTACATTTTGCTTTACCGCTGCGGAGTCACCTAGTGCAG,9500 fluorescence intensity (a.u.)
20,CCGTTACGCGATCATCTCATCTCGCCGAGTCATCAGCCGCCGGAGTCACCTAGTGCAG,8370 fluorescence intensity (a.u.)
21,ACGCCGGTTGTTCGTTGCTCCCTGCGTTTATAAATCCGATCGGAGTCACCTAGTGCAG,9820 fluorescence intensity (a.u.)

# Some of the entries above, reformatted:
row	Sequence	binding signal
2	TACATTACTTCATATTTTTTTCTGTTTGTGATTTCTATTTCGGAGTCACCTAGTGCAG	9740 fluorescence intensity (a.u.)
3	TTTATATCCGGCTTTTTTACCCTCGTCAATTTCTCATTCGCGGAGTCACCTAGTGCAG	9740 fluorescence intensity (a.u.)
4	TCACCACCGCGACTTCAGTTCTCCACCTTCAACCACTTCTCGGAGTCACCTAGTGCAG	11800 fluorescence intensity (a.u.)
